PubChem BioAssay AID504793 | Drosophila RNAi Screening Center, 2011

- Purpose: 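Genes required for cells to halt at G2/M after double-strand DNA breaks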 (primary screen)
- Cell system: Drosophila S2R+ cells
- Knock-down reagent: long dsRNA against Drosophila genes, about 0.25 µg dsRNA per well
- Timing: 4 days of dsRNA, then 4 hours of drug before read-out
- Conditions: doxorubicin 0.5 µM for 4 hours to cause double-strand breaks, in cells also given a low, harmless dose of dsRNA against nbs to sensitise the assay
- Measured: 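Mitotic index as the number of phospho-histone H3-positive cells in each well following doxorubicin, given as raw counts without normalisation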
- Reading the numbers: mitotic cells: higher = more cells in mitosis, weaker G2 arrest
- Hit rule: 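a call needs confirmation in secondary tests, with other dsRNAs and a check of mitotic timing without damage, not just a high primary count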
- Meaning of the calls: active = confirmed in follow-up tests; inactive = not confirmed
In all, the deposit lists about 23,000 reagents; below is a random part of those with a known target gene and a result. Of all reagents, 62 (0.27%) got an active call. 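Calls come from follow-up tests whose scores are not deposited, so confirmed genes may have low counts here; counts are not normalised per plate.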 Raw values vary from plate to plate and are shown uncorrected. A number with no mark means an inactive call.

CG31817 [DRSC01537]: mitotic cells, replicate 1 = 4
CG31817 [DRSC01538]: mitotic cells, replicate 1 = 8
CG31817 [DRSC22476]: mitotic cells, replicate 1 = 48
bma [DRSC09896]: mitotic cells, replicate 1 = 5
bma [DRSC10164]: mitotic cells, replicate 1 = 3
bma [DRSC28408]: mitotic cells, replicate 1 = 4
KrT95D [DRSC16725]: mitotic cells, replicate 1 = 11
KrT95D [DRSC25551]: mitotic cells, replicate 1 = 12
rdgBbeta [DRSC07672]: mitotic cells, replicate 1 = 4
CG13229 [DRSC06349]: mitotic cells, replicate 1 = 8
kek2 [DRSC03552]: mitotic cells, replicate 1 = 8
kek2 [DRSC26189]: mitotic cells, replicate 1 = 3
Dhpr [DRSC11135]: mitotic cells, replicate 1 = 6
EndoB [DRSC07345]: mitotic cells, replicate 1 = 4

Entries listed so far whose target name begins with K or k:
KrT95D [DRSC16725]: mitotic cells, replicate 1 = 11
KrT95D [DRSC25551]: mitotic cells, replicate 1 = 12
kek2 [DRSC03552]: mitotic cells, replicate 1 = 8
kek2 [DRSC26189]: mitotic cells, replicate 1 = 3
